Data taken from patent US20160235069A1, “N-ACRYLIMINO HETEROCYCLIC COMPOUNDS” (BASF SE, priority 2013, published 2016).
Some results were stated once for a whole list of compounds, not compound by compound.

Columns and labels:
Assay type in all cases: in vivo
Myzus persicae = test: Green peach aphid (Myzus persicae), systemic, artificial diet in 96-well plates; conditions: 2500 ppm; adult aphids on treated diet; 3 days
Text: General conditions: If not otherwise specified, most test solutions are to be prepared as follows: The active compound is to be dissolved at the desired concentration in a mixture of 1:1 (vol:vol) distilled water:acteon. Further, the test solutions are to be prepared at the day of use (and, if not otherwise specified, in general at concentrations wt/vol).
For evaluating control of green peach aphid (Myzus persicae) through systemic means, the test unit consists of 96-well-microtiter plates containing liquid artificial diet under an artificial membrane.
The compounds are formulated using a solution containing 75% v/v water and 25% v/v DMSO. Different concentrations of formulated compounds are pipetted into the aphid diet, using a custom built pipetter, at two replications.
After application, 5-8 adult aphids are placed on the artificial membrane inside the microtiter plate wells. The aphids are then allowed to suck on the treated aphid diet and incubated at about 23+1° C. and about 50+5% relative humidity for 3 days. Aphid mortality and fecundity is then visually assessed.

Anthonomus grandis = test: Boll weevil (Anthonomus grandis), insect diet with eggs in 96-well plates; conditions: 2500 ppm; egg and larval mortality; 5 days
Method: For evaluating control of boll weevil (Anthonomus grandis) the test unit consisted of 96-well-microtiter plates containing an insect diet and 5-10 A. grandis eggs.
The compounds were formulated using a solution containing 75% v/v water and 25% v/v DMSO. Different concentrations of formulated compounds were sprayed onto the insect diet at 5 μl, using a custom built micro atomizer, at two replications.
After application, microtiter plates were incubated at about 25±1° C. and about 75±5% relative humidity for 5 days. Egg and larval mortality was then visually assessed.

Ceratitis capitata = test: Mediterranean fruitfly (Ceratitis capitata), insect diet with eggs in microtiter plates; conditions: 2500 ppm; egg and larval mortality; 5 days
Heliothis virescens = test: Tobacco budworm (Heliothis virescens), insect diet with eggs in 96-well plates; conditions: 2500 ppm; egg and larval mortality; 5 days
Megoura viciae = test: Vetch aphid (Megoura viciae), contact or systemic, broad bean leaf disks; conditions: 2500 ppm; adult aphids on sprayed leaf disks; 5 days
Method: For evaluating control of vetch aphid (Megoura viciae) through contact or systemic means the test unit consisted of 24-well-microtiter plates containing broad bean leaf disks.
The compounds were formulated using a solution containing 75% v/v water and 25% v/v DMSO. Different concentrations of formulated compounds were sprayed onto the leaf disks at 2.5 μl, using a custom built micro atomizer, at two replications.
After application, the leaf disks were air-dried and 5-8 adult aphids were placed on the leaf disks inside the microtiter plate wells. The aphids were then allowed to suck on the treated leaf disks and were incubated at about 23±1° C. and about 50±5% relative humidity for 5 days. Aphid mortality and fecundity was then visually assessed.

Nephotettix virescens = test: Rice green leafhopper (Nephotettix virescens), sprayed rice seedlings; conditions: 500 ppm; adults on sprayed rice seedlings; after 72 hours
Method: Rice seedlings are cleaned and washed 24 hours before spraying. The active compounds are formulated in 50:50 acetone:water (vol:vol), and 0.1% vol/vol surfactant (EL 620) is added. Potted rice seedlings are sprayed with 5 ml test solution, air dried, placed in cages and inoculated with 10 adults. Treated rice plants are kept at about 28-29° C. and relative humidity of about 50-60%. Percent mortality is recorded after 72 hours.

Aphis craccivora = test: Cowpea aphid (Aphis craccivora), sprayed potted cowpea plants; conditions: 500 ppm, after 72 hours
Method: The active compound is dissolved at the desired concentration in a mixture of 1:1 (vol:vol) distilled water: acetone. Surfactant (Alkamuls® EL 620) is added at a rate of 0.1% (vol/vol). The test solution is prepared at the day of use.
Potted cowpea plants are colonized with approximately 50-100 aphids of various stages by manually transferring a leaf tissue cut from infested plant 24 hours before application. Plants are sprayed after the pest population has been recorded. Treated plants are maintained on light carts at about 28° C. Percent mortality is assessed after 72 hours.

Dichromothrips corbetti = test: Orchid thrips (Dichromothrips corbetti), floral-immersion technique; conditions: 500 ppm; adult thrips on dipped orchid flowers; 72 hours after treatment
Method: Dichromothrips corbetti adults used for bioassay are obtained from a colony maintained continuously under laboratory conditions. For testing purposes, the test compound is diluted in a 1:1 mixture of acetone:water (vol:vol), plus 0.01% vol/vol Alkamuls® EL 620 surfactant.
Thrips potency of each compound is evaluated by using a floral-immersion technique. Plastic petri dishes are used as test arenas. All petals of individual, intact orchid flowers are dipped into treatment solution and allowed to dry. Treated flowers are placed into individual petri dishes along with about 20 adult thrips. The petri dishes are then covered with lids. All test arenas are held under continuous light and a temperature of about 28° C. for duration of the assay. After 3 days, the numbers of live thrips are counted on each flower, and along inner walls of each petri dish. The percent mortality is recorded 72 hours after treatment.

N#CC(=Cc1ccsc1)C(=O)N=c1ccccn1Cc1ccc(Cl)nc1 (mixture of isomers) [Compound E1.23]
mortality in comparison with untreated controls (Myzus persicae): at least 75%
mortality in comparison with untreated controls (Anthonomus grandis): at least 75%
mortality in comparison with untreated controls (Ceratitis capitata): at least 75%
mortality in comparison with untreated controls (Heliothis virescens): at least 75%

N#CC(=CC(Cl)Cl)C(=O)N=c1ccccn1Cc1ccc(Cl)nc1 (mixture of isomers) [Compound E1.29]
mortality in comparison with untreated controls (Myzus persicae): at least 75%
mortality in comparison with untreated controls (Megoura viciae): at least 75%
mortality in comparison with untreated controls (Nephotettix virescens): at least 75%

CCCC(C)C=C(C#N)C(=O)N=c1ccccn1Cc1ccc(Cl)nc1 (mixture of isomers) [Compound E1.31]
mortality in comparison with untreated controls (Myzus persicae): at least 75%
mortality in comparison with untreated controls (Megoura viciae): at least 75%
mortality in comparison with untreated controls (Aphis craccivora): at least 75%

N#CC(=CC1CC1)C(=O)N=c1ccccn1Cc1ccc(Cl)nc1 (mixture of isomers) [Compound E1.34]
mortality in comparison with untreated controls (Myzus persicae): at least 75%
mortality in comparison with untreated controls (Megoura viciae): at least 75%
mortality in comparison with untreated controls (Aphis craccivora): at least 75%
mortality in comparison with untreated controls (Dichromothrips corbetti): at least 75%
mortality in comparison with untreated controls (Nephotettix virescens): at least 75%

CCC=C(C#N)C(=O)N=c1ccccn1Cc1ccc(Cl)nc1 (mixture of isomers) [Compound E1.35]
mortality in comparison with untreated controls (Myzus persicae): at least 75%
mortality in comparison with untreated controls (Megoura viciae): at least 75%
mortality in comparison with untreated controls (Aphis craccivora): at least 75%
mortality in comparison with untreated controls (Dichromothrips corbetti): at least 75%
mortality in comparison with untreated controls (Nephotettix virescens): at least 75%

N#CC(=CC1CCCC1)C(=O)N=c1ccccn1Cc1ccc(Cl)nc1 (mixture of isomers) [Compound E1.36]
mortality in comparison with untreated controls (Myzus persicae): at least 75%
mortality in comparison with untreated controls (Megoura viciae): at least 75%
mortality in comparison with untreated controls (Dichromothrips corbetti): at least 75%

N#CC(=Cc1ccco1)C(=O)N=c1ccccn1Cc1ccc(Cl)nc1 (mixture of isomers) [Compound E1.38]
mortality in comparison with untreated controls (Myzus persicae): at least 75%
mortality in comparison with untreated controls (Megoura viciae): at least 75%
mortality in comparison with untreated controls (Nephotettix virescens): at least 75%

N#CC(=Cc1cccc(C(F)(F)F)c1)C(=O)N=c1ccccn1Cc1ccc(Cl)nc1 (mixture of isomers) [Compound E1.45]
mortality in comparison with untreated controls (Myzus persicae): at least 75%
mortality in comparison with untreated controls (Megoura viciae): at least 75%
mortality in comparison with untreated controls (Heliothis virescens): at least 75%

CCC(C)C(C)C=C(C#N)C(=O)N=c1ccccn1Cc1ccc(Cl)nc1 (mixture of isomers) [Compound E1.48]
mortality in comparison with untreated controls (Myzus persicae): at least 75%
mortality in comparison with untreated controls (Ceratitis capitata): at least 75%

N#CC(=Cc1ccc(C(F)(F)F)nc1)C(=O)N=c1ccccn1Cc1ccc(Cl)nc1 (mixture of isomers) [Compound E1.51]
mortality in comparison with untreated controls (Myzus persicae): at least 75%
mortality in comparison with untreated controls (Ceratitis capitata): at least 75%

N#CC(=Cc1ncccn1)C(=O)N=c1ccccn1Cc1ccc(Cl)nc1 (mixture of isomers) [Compound E1.62]
mortality in comparison with untreated controls (Myzus persicae): at least 75%
mortality in comparison with untreated controls (Ceratitis capitata): at least 75%

N#CC(=CC1CCCOC1)C(=O)N=c1ccccn1Cc1ccc(Cl)nc1 (mixture of isomers) [Compound E1.78]
mortality in comparison with untreated controls (Myzus persicae): at least 75%
mortality in comparison with untreated controls (Megoura viciae): at least 75%

CC(=O)OCCC(C)C=C(C#N)C(=O)N=c1ccccn1Cc1ccc(Cl)nc1 (mixture of isomers) [Compound E1.82]
mortality in comparison with untreated controls (Myzus persicae): at least 75%
mortality in comparison with untreated controls (Megoura viciae): at least 75%

N#CC(=CCC1CCSCC1)C(=O)N=c1ccccn1Cc1ccc(Cl)nc1 (mixture of isomers) [Compound E1.83]
mortality in comparison with untreated controls (Myzus persicae): at least 75%
mortality in comparison with untreated controls (Megoura viciae): at least 75%

CC(C=C(C#N)C(=O)N=c1ccccn1Cc1ccc(Cl)nc1)Oc1ccccc1 (mixture of isomers) [Compound E1.84]
mortality in comparison with untreated controls (Myzus persicae): at least 75%
mortality in comparison with untreated controls (Megoura viciae): at least 75%

CC(C=C(C#N)C(=O)N=c1ccccn1Cc1ccc(Cl)nc1)OC1CCCCC1 (mixture of isomers) [Compound E1.85]
mortality in comparison with untreated controls (Myzus persicae): at least 75%
mortality in comparison with untreated controls (Megoura viciae): at least 75%
mortality in comparison with untreated controls (Anthonomus grandis): at least 75%

CC(=O)OCCCCCCC=C(C#N)C(=O)N=c1ccccn1Cc1ccc(Cl)nc1 (mixture of isomers) [Compound E1.88]
mortality in comparison with untreated controls (Myzus persicae): at least 75%
mortality in comparison with untreated controls (Megoura viciae): at least 75%

CC(C)(C)c1ccc(C=C(C#N)C(=O)N=c2ccccn2Cc2ccc(Cl)nc2)cc1 (mixture of isomers) [Compound E1.90]
mortality in comparison with untreated controls (Myzus persicae): at least 75%
mortality in comparison with untreated controls (Megoura viciae): at least 75%

Cc1ccc(C=C(C#N)C(=O)N=c2ccccn2Cc2ccc(Cl)nc2)cc1C (mixture of isomers) [Compound E1.91]
mortality in comparison with untreated controls (Myzus persicae): at least 75%
mortality in comparison with untreated controls (Megoura viciae): at least 75%

N#CC(=Cc1ccc(Cl)cc1)C(=O)N=c1ccccn1Cc1ccc(Cl)nc1 (mixture of isomers) [Compound E1.93]
mortality in comparison with untreated controls (Myzus persicae): at least 75%
mortality in comparison with untreated controls (Megoura viciae): at least 75%
mortality in comparison with untreated controls (Heliothis virescens): at least 75%

N#CC(=Cc1ccc(C(F)(F)F)cc1)C(=O)N=c1ccccn1Cc1ccc(Cl)nc1 (mixture of isomers) [Compound E1.94]
mortality in comparison with untreated controls (Myzus persicae): at least 75%
mortality in comparison with untreated controls (Megoura viciae): at least 75%
mortality in comparison with untreated controls (Heliothis virescens): at least 75%

O=C(N=c1ccccn1Cc1ccc(Cl)nc1)C(F)=C(F)c1ccc(Cl)cc1 (single isomer, unassigned) [Compound E1.24]
mortality in comparison with untreated controls (Dichromothrips corbetti): at least 75%

O=C(N=c1ccccn1Cc1ccc(Cl)nc1)C(F)=C(F)c1ccc(Cl)cc1 (single isomer, unassigned) [Compound E1.25]
mortality in comparison with untreated controls (Aphis craccivora): at least 75%

C=C(C)C(=O)N=c1ccccn1Cc1ccc(Cl)nc1 [Compound E1.11]
mortality in comparison with untreated controls (Aphis craccivora): at least 75%
mortality in comparison with untreated controls (Dichromothrips corbetti): at least 75%
mortality in comparison with untreated controls (Nephotettix virescens): at least 75%

C=C(F)C(=O)N=c1ccccn1Cc1cnc(Cl)s1 [Compound E1.13]
mortality in comparison with untreated controls (Myzus persicae): at least 75%
mortality in comparison with untreated controls (Megoura viciae): at least 75%
mortality in comparison with untreated controls (Dichromothrips corbetti): at least 75%
mortality in comparison with untreated controls (Anthonomus grandis): at least 75%
mortality in comparison with untreated controls (Ceratitis capitata): at least 75%
mortality in comparison with untreated controls (Heliothis virescens): at least 75%
